Measurements reported in PubChem BioAssay AID1224826 (NIAID, 2016).
Purpose: 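Genes that change LPS-induced Tnf promoter activity in mouse macrophages when knocked down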 (primary screen). System: RAW264.7 G9 macrophages from mouse bearing reporters for p65 (GFP) and the Tnf promoter (mCherry). Knock-down reagent: siRNA pool against mouse genes, 100 nM. Time to read-out: 16 h of LPS stimulation, after 2 days of siRNA transfection. Challenge: bacterial lipopolysaccharide (Salmonella minnesota R595), 10 ng/ml. Read-out: 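Nuclear mCherry signal of the Tnf promoter reporter measured by imaging after background removal, scaled to each plate median and turned into robust z-scores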. Scale: Tnf reporter robust z-score: higher = stronger Tnf promoter reporter signal after LPS. Rule for the call: 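a well counts as active at a score of -1.3 or below (Tlr4 knock-down control median) or above 3 (raised signal); controls and wells holding fewer than 50 cells are excluded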. Calls: active = Tnf reporter clearly lowered or raised; inactive = no clear change in Tnf reporter.
The whole screen tested about 17,000 reagents; below is a part drawn at random. In the full data, about 1,110 (6.6%) are marked active. 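Active means lowered or raised reporter signal; replicate intensities are raw and not normalised per plate.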 Entries without a mark were called inactive. Not all columns of the deposit are shown.

How did the screen score Thg1l (GeneID 66628)?
Tnf reporter robust z-score: 0.34; fewer than 50 cells in well: enough cells in well

For Onecut3 (GeneID 246086), how do the results read?
fewer than 50 cells in well: fewer than 50 cells per well; well left out of calls

For Tstd2 (GeneID 272027), what does the deposit list?
fewer than 50 cells in well: fewer than 50 cells per well; well left out of calls

For Ciita (GeneID 12265), what was measured?
Tnf reporter robust z-score: -0.13; fewer than 50 cells in well: enough cells in well

For Actl9 (GeneID 69481), what does the deposit list?
Tnf reporter robust z-score: 1.75; fewer than 50 cells in well: enough cells in well

What did the screen give for Top3b (GeneID 21976)?
Tnf reporter robust z-score: -0.84; fewer than 50 cells in well: enough cells in well

For Cmtm7 (GeneID 102545), how do the results read?
Tnf reporter robust z-score: 1.3; fewer than 50 cells in well: enough cells in well

What is on record for Calml3 (GeneID 70405)?
Tnf reporter robust z-score: -0.31; fewer than 50 cells in well: enough cells in well

For Rnf169 (GeneID 108937), how do the results read?
Tnf reporter robust z-score: -0.22; fewer than 50 cells in well: enough cells in well

What is on record for Immt (GeneID 76614)?
Tnf reporter robust z-score: 1.48; fewer than 50 cells in well: enough cells in well

Which result is listed for Eif1a (GeneID 13664)?
Tnf reporter robust z-score: 0.67; fewer than 50 cells in well: enough cells in well

How did the screen score Mrm3 (GeneID 67390)?
fewer than 50 cells in well: fewer than 50 cells per well; well left out of calls

What did the screen give for Stag2 (GeneID 20843)?
Tnf reporter robust z-score: -0.24; fewer than 50 cells in well: enough cells in well

What did the screen give for Cacng6 (GeneID 54378)?
Tnf reporter robust z-score: -0.3; fewer than 50 cells in well: enough cells in well

For Trappc2b (GeneID 66050), what was measured?
fewer than 50 cells in well: fewer than 50 cells per well; well left out of calls

What did the screen give for Plxdc1 (GeneID 72324)?
fewer than 50 cells in well: fewer than 50 cells per well; well left out of calls

Which result is listed for Ifi203 (GeneID 15950)?
Tnf reporter robust z-score: 0.88; fewer than 50 cells in well: enough cells in well

Which result is listed for Coro1c (GeneID 23790)?
Tnf reporter robust z-score: -0.51; fewer than 50 cells in well: enough cells in well

For Uqcc2 (GeneID 67267), what was measured?
Tnf reporter robust z-score: -0.13; fewer than 50 cells in well: enough cells in well

What is on record for Try4 (GeneID 22074)?
Tnf reporter robust z-score: 3.15 (active); fewer than 50 cells in well: enough cells in well

With Aamdc (GeneID 66273), what does the deposit list?
Tnf reporter robust z-score: 1.09; fewer than 50 cells in well: enough cells in well

With Yars2 (GeneID 70120), what does the deposit list?
fewer than 50 cells in well: fewer than 50 cells per well; well left out of calls

Which result is listed for Apon (GeneID 28194)?
Tnf reporter robust z-score: -0.86; fewer than 50 cells in well: enough cells in well

For Pcdhga11 (GeneID 93723), how do the results read?
Tnf reporter robust z-score: 2.47; fewer than 50 cells in well: enough cells in well

How did the screen score Gzmm (GeneID 16904)?
Tnf reporter robust z-score: -0.87; fewer than 50 cells in well: enough cells in well

What did the screen give for Hccs (GeneID 15159)?
Tnf reporter robust z-score: -0.08; fewer than 50 cells in well: enough cells in well

What did the screen give for Prpf4b (GeneID 19134)?
Tnf reporter robust z-score: -0.69; fewer than 50 cells in well: enough cells in well
